# Measurements reported in patent publication US6903130B1, “Pyrrolidineacetamide derivative alone or in combination for treatment of cns disorders” (UCB S.A., priority 1999, dated 2005).
# Experiment: Plasma and brain levels after oral dosing in sound-sensitive mice
# Details: alone or in combination with levetiracetam
# Procedure: Male genetically sound-sensitive mice (17-30 g; N=10), derived from a DBA strain originally selected by Dr Lehmann of the Laboratory of Acoustic Physiology (Paris) and bred in the UCB Pharma Sector husbandry unit since 1978, were submitted to the induction of audiogenic seizures. Levetiracetam (5.4 mg/kg) and sodium valproate (166.2 mg/kg) were administered orally, alone or in combination, 60 minutes before the induction of audiogenic seizures. For testing audiogenic seizure, the mice were placed in the cages, one mouse per cage, in the sound-attenuated chamber. After a period of habituation of 30 seconds, the acoustic stimulus (90 dB, 10-20 kHz) was delivered for 30 seconds via the loud speakers. During this interval, the mice were observed and the presence of the 3 phases of the seizure activity, namely wild running, clonic and tonic convulsions, was recorded.
# In all animals, blood samples were collected immediately after the seizure test (I h after dosing) by cardiac puncture under light carbon dioxide anesthesia, into heparinised microtubes. […] Levetiracetam was measured in plasma and brain samples by validated gas chromatography assay with mass detection. With sodium valproate, fluorescence polarization immunoassays were used.
# The mean value plus standard deviation was calculated for plasma and brain concentrations of valproate and levetiracetam, and for the brain/plasma ratio. […]
structure (smiles),measurement,value
"CN1C(=O)CN=C(c2ccccc2)c2cc(Cl)ccc21 [diazepam, reference compound]",plasma concentrations and brain/plasma ratio alone vs in combination with levetiracetam (in words),unchanged
